Source: BindingDB's records for PubMed 9686407 (Sri International, 1998)
Where a name gives a salt, the structure may show the parent alone.

The chains behind the UniProt entries cited, without tags or fusion partners. A line that says so, or that is headed by a name, gives the form on record, which may keep a tag or linker.
UniProt P35462, as listed by the source: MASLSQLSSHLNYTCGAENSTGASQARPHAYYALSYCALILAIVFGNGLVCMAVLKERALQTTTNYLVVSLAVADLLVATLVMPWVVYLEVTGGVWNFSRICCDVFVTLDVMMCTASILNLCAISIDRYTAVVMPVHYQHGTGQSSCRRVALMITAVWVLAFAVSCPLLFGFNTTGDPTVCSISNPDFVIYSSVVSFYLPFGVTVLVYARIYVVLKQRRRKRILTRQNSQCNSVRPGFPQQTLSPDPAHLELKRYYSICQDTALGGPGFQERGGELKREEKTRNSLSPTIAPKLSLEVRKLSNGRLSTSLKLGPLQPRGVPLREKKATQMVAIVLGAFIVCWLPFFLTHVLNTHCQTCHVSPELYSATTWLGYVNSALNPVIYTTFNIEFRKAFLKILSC
UniProt P21728, whole entry: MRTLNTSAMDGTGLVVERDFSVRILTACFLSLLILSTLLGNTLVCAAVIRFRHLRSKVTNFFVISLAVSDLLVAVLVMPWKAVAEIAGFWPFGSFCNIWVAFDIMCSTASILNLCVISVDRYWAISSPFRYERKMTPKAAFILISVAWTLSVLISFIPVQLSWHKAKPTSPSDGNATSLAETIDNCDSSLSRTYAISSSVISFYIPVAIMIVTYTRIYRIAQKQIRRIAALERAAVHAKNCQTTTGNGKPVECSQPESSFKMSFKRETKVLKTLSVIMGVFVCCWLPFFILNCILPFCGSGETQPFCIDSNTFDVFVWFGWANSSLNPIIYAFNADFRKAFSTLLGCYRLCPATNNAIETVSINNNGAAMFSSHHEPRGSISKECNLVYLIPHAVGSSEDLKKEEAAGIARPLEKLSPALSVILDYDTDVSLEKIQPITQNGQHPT

How the values were obtained:
D(3) dopamine receptor = D(3) dopamine receptor (Homo sapiens, UniProt P35462)
D(1A) dopamine receptor = D(1A) dopamine receptor (Homo sapiens, UniProt P21728)
[1] = target: T1, 5-hydroxytryptamine receptor 3A (Mus musculus, UniProt P23979)
T1 sequence (P23979 whole entry): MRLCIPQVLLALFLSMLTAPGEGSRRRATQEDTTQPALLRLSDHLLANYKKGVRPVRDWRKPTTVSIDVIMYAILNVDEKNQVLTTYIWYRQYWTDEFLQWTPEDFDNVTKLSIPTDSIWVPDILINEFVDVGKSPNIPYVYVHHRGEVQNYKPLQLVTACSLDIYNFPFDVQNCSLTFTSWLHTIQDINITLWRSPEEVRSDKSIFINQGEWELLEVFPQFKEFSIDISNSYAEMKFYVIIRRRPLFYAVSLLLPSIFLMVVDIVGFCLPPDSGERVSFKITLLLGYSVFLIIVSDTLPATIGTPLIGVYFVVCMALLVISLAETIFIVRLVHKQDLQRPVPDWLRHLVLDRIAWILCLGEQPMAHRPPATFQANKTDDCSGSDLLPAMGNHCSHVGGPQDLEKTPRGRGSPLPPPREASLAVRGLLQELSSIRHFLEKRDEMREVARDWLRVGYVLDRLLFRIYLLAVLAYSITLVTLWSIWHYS

Row | Compound | Ki (D(3) dopamine receptor) [nM] | Ki (D(1A) dopamine receptor) [nM] | Ki [1] [nM]
1 | CN1CCC(=C2c3ccccc3C=Cc3ccccc32)CC1 [5-(1-methylpiperidylidene-4)-5H-dibenzo(a,d)cyclopheptene] | 8 | 117 | 
2 | CN(C)CCCN1c2ccccc2CCc2ccc(Cl)cc21 [CLOMIPRAMINE HYDROCHLORIDE] |  | 219 | 
3 | CC(C)NC[C@H](O)COc1cccc2ccccc12 [Propanolol,(+/-)] |  |  | > 10000
